Measurements reported in paper PMC8484663.
Results are given in words; binding and its absence hold for the method and conditions named. Binding can be weak; no strength is given. For some assays here: Where a sequence is shown, tags or fusion partners need not be part of it. For some assays here: In cells and extracts the contact can be indirect. Values belong to the molecule of their own block, whether it stands above or below them.

Assays:
[1] = target: T1, MdPR10-2-BK (apple (Malus x domestica cv. Hanfu)) (UniProt Q40280); experiment: two-hybrid; yeast strain AH109, pGADT7 and pGBKT7 fusions cotransformed; growth on synthetic dropout medium, X-α-gal staining, β-galactosidase activity; 30 °C
T1 sequence: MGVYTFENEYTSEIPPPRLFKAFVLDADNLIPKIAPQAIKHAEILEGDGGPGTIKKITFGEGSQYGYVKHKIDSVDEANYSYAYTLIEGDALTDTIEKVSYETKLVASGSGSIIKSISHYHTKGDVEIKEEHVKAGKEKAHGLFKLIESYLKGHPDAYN

[2] = target: T2, MdPR10-2-YFPn (apple (Malus x domestica cv. Hanfu)) (UniProt Q40280); experiment: split reporter; BiFC with YFPn and YFPc fusions, transiently expressed in N. benthamiana epidermal cells by Agrobacterium tumefaciens; confocal microscopy
T2 sequence: T1 sequence

[3] = target: MdRNL6-3-YFPn (apple (Malus x domestica)); experiment: as above
[4] = target: MdRNL6-YFPn (apple (Malus x domestica)); experiment: as above
[5] = target: MdRNL6-3-BK (apple (Malus x domestica)); experiment: two-hybrid; yeast strain AH109, pGADT7 and pGBKT7 fusions cotransformed; growth on synthetic dropout medium, X-α-gal staining, β-galactosidase activity; 30 °C
[6] = target: MdRNL6-BK (apple (Malus x domestica)); experiment: as above

Molecule: MdRNL2-AD (apple (Malus x domestica))
- binding [1]: binds

Molecule: MdRNL2-3-YFPc (apple (Malus x domestica)) (domain or fragment)
- binding [2]: binds

B2: MdPR10-2-AD (protein, UniProt Q40280 1-159)
chain: T1 sequence
- binding [5]: binds
- binding [6]: binds

Continued, values first:

- binding [2]: binds
Molecule: MdRNL2-YFPc (apple (Malus x domestica))

- binding [1]: binds
Molecule: MdRNL2-3-AD (apple (Malus x domestica)) (domain or fragment)

- binding [3]: binds
- binding [4]: binds
B1: MdPR10-2-YFPc (protein, UniProt Q40280 1-159)
chain: T1 sequence
